Here are results for six sequences from paper PMC7862700.

By UniProt entry, the sequences of proteins in these tests, tags left out. Where a name states a change or a piece, a line headed by the entry shows the natural chain unless it says otherwise.
UniProt Q9Y603: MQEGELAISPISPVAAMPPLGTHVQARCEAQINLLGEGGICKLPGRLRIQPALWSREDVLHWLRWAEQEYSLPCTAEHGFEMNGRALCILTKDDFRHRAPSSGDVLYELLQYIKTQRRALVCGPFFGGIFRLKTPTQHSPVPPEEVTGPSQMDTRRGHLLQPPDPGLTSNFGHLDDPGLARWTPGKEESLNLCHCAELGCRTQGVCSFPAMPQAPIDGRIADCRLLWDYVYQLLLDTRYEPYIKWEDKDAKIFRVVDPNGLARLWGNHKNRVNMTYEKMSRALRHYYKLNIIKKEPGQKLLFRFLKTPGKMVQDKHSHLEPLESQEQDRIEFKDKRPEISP
UniProt P41212: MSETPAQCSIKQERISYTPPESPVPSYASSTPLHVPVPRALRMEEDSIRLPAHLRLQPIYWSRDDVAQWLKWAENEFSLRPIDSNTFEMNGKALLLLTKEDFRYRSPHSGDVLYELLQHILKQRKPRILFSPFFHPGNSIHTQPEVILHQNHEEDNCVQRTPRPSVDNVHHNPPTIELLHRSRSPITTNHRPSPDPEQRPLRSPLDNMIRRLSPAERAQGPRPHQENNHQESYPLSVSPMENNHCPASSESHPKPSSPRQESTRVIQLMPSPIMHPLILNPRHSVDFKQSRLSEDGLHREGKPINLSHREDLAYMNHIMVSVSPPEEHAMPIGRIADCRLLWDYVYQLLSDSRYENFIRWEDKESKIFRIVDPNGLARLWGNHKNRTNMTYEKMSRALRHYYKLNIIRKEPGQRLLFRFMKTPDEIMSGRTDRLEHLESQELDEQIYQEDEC

The entries are a selection whose mix differs from that of the whole data set. At the low end of the ranking the order means little.

Holding throughout (assay): DAPPL (digital affinity profiling via proximity ligation, sequencing)
Conditions in all cases: 10 mM Tris-HCl pH 7.5, 50 mM NaCl, 1 mM DTT, 4% glycerol, room temperature, 30 min; GST-TFs on glutathione beads, 16-mer random dsDNA library, 0.1% …; high values mean tight binding; double strand, one strand shown; scale: fold enrichment (6-mer frequency, TF over GST control)

One assay concerns the target T1, ELF3 (UniProt P78545).
T1 sequence: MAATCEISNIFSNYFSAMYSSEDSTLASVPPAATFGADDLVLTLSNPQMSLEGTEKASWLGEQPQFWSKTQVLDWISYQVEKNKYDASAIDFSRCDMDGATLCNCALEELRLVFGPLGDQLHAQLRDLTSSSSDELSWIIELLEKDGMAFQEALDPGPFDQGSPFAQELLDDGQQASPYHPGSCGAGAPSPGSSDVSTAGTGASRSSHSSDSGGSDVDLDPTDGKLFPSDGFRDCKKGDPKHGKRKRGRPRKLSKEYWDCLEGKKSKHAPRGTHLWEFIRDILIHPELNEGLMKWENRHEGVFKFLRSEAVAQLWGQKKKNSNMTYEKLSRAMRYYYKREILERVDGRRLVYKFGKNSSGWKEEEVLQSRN

The next assay has as its target ETV7 (UniProt Q9Y603).
In the next assay the target is ETV6 (UniProt P41212).

Take GGTCGC: the results for the binding signal with ELF3, in the assay with ETV7 and with ETV6 were 0.741, 0.745 and 0.874, respectively.
Regarding CGCGGG, the binding signal came to 0.679 with ELF3, 0.869 in the assay with ETV7 and 0.703 with ETV6.
Regarding GGGCGT, the results for the binding signal with ELF3, in the assay with ETV7 and in the assay with ETV6 were 0.521, 0.56 and 0.517, respectively.
Consider AGGGAC, for which the binding signal with ELF3 was determined as 0.852; with ETV7, 0.77; with ETV6 it was 0.729.
As to GCCAGG, the binding signal with ELF3 stood at 0.512; with ETV7, 0.578; with ETV6 it was 0.442.
With GCGCAA, the binding signal came to 0.762 in the assay with ELF3, 0.849 with ETV7 and 0.75 with ETV6.
